To fix the notation:
B1: VH3/VK2 humanized anti-tau antibody (antibody, human IgG4 S228P, kappa, V domains shown)
VH: EVQVVESGGGLVQPGGSLKLSCVVSGFTFSNYWVNWVRQAPGKGLEWVAQIRLKSDNYATHYEESVKGRFTISRDDSKNSVYLQMNSLRAEDTAIYYCTNWEDYWGQGTTVTVSS
VL: DIVLTQSPDSLAVSLGERATISCRASQSVSTSRYSYIHWYQQKPGQPPKLLIKYASNLESGVPSRFSGSGSGTDFTLNIHPLEPEDFATYYCHHSWEIPLTFGQGTKLEIKR
B2: VH1/VK2 humanized anti-tau antibody (C2N-8E12) (antibody, human IgG4 S228P, kappa, V domains shown)
VH: EVKVVESGGGLVQPGGSMKLSCVVSGFTFSNYWVNWVRQAPGKGLEWVAQIRLKSDNYATHYEESVKGRFTISRDDSKSSVYLQMNNLRAEDSGIYYCTNWEDYWGQGTTVTVSS
VL: DIVLTQSPDSLAVSLGERATISCRASQSVSTSRYSYIHWYQQKPGQPPKLLIKYASNLESGVPSRFSGSGSGTDFTLNIHPLEPEDFATYYCHHSWEIPLTFGQGTKLEIKR
B3: VH2/VK2 humanized anti-tau antibody (antibody, human IgG4 S228P, kappa, V domains shown)
VH: EVKVVESGGGLVQPGGSLKLSCVVSGFTFSNYWVNWVRQAPGKGLEWVAQIRLKSDNYATHYEESVKGRFTISRDDSKSSVYLQMNSLRAEDTGIYYCTNWEDYWGQGTTVTVSS
VL: DIVLTQSPDSLAVSLGERATISCRASQSVSTSRYSYIHWYQQKPGQPPKLLIKYASNLESGVPSRFSGSGSGTDFTLNIHPLEPEDFATYYCHHSWEIPLTFGQGTKLEIKR
B4: chimeric HJ8.5 monoclonal antibody (antibody, V domains shown)
VH: EVKVEESGGGLVQPGGSMKLSCVVSGFTFSNYWVNWVRQSPEKGLEWVAQIRLKSDNYATHYEESVKGRFTISRDDSKSSVYLQMNNLRAEDSGIYYCTNWEDYWGQGTTLTVSS
VL: DIVLTQSPASLAVSLGQRATISCRASQSVSTSRYSYIHWYQQKPGQPPKLLIKYASNLESGVPARFSGSGSGTDFTLNIHPLEEEDAATYYCHHSWEIPLTFGAGTKLELK

Among the data in patent publication US20180371066A1 are binding values, retold here.

These are yes or no findings as the source states them, for the method shown.

The target in this assay is Wild-Type Mouse (brain tissue) (Mus musculus). The experiment in a line: immunostaining of brain sections.
Consider B1, for which the binding entry is “no binding”. For the molecule B2, the binding entry is given as “no binding”. For the molecule B3, the binding result is listed as “no binding”. The same measure for B4: “no binding”.
